According to paper doi:10.1101/2020.03.25.006957:
These are yes or no findings as the source states them, for the method shown. Binding calls can cover weak binding; strength is not graded here. For some assays here: Tags and fused reporters may be left off the sequences shown. For some assays here: Binding seen in cells or lysates may run through a third protein. Blank lines part the entries; values can stand above or below the molecule they belong to.

Legend:
[1] = biological target: T1, MeGBSSI (cassava granule-bound starch synthase I) (cassava, Manihot esculenta (endogenous in storage roots)) (UniProt Q43784); test: co-IP
T1 sequence: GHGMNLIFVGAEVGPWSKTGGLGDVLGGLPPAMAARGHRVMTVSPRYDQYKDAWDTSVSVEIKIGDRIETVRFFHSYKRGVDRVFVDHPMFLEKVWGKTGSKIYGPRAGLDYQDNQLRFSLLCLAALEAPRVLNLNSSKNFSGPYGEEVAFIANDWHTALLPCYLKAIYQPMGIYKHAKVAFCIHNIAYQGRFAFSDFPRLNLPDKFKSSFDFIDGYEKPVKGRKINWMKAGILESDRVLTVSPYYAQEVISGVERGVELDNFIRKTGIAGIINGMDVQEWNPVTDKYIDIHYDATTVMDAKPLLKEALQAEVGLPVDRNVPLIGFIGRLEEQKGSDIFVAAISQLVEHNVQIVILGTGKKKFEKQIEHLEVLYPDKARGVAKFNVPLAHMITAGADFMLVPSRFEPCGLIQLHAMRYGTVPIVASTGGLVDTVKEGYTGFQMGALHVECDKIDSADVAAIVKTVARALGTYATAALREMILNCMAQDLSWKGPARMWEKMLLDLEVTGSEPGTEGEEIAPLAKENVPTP

[2] = biological target: T2, cYFP-MeGBSSI (cassava (Manihot esculenta)) (UniProt Q43784); test: split reporter
T2 sequence: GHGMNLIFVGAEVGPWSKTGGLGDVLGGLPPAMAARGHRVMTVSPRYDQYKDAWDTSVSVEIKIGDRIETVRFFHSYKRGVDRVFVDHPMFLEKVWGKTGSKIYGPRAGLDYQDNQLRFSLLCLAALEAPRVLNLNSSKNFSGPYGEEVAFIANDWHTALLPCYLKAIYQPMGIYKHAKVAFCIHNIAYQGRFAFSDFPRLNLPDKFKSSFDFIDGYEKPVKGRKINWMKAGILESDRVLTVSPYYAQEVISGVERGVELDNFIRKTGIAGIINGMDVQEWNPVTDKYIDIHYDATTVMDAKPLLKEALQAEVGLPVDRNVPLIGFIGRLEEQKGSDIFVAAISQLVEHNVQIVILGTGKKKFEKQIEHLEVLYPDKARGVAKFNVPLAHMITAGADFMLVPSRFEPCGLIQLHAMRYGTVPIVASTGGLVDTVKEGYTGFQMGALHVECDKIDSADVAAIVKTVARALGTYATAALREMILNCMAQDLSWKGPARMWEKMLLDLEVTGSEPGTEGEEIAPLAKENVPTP

[3] = biological target: MeISAI, yeast two-hybrid fusion (cassava (Manihot esculenta)); test: two-hybrid
[4] = biological target: MeSSI, yeast two-hybrid fusion (cassava (Manihot esculenta)); test: two-hybrid
[5] = biological target: MeISAII (cassava isoamylase II) (cassava, Manihot esculenta (endogenous in storage roots)); test: co-IP
[6] = biological target: MeSBEI (cassava starch branching enzyme I) (cassava, Manihot esculenta (endogenous in storage roots)); test: co-IP
[7] = biological target: MeSSI (cassava soluble starch synthase I) (cassava, Manihot esculenta (endogenous in storage roots)); test: co-IP
[8] = biological target: MeSSII (cassava soluble starch synthase II) (cassava, Manihot esculenta (endogenous in storage roots)); test: co-IP

binding [1]: binds
Molecule: MeSSI (cassava soluble starch synthase I) (enzyme)

binding [1]: binds
Molecule: MeSSII (cassava soluble starch synthase II) (enzyme)

binding [2]: binds
Molecule: nYFP-MeISAI (cassava (Manihot esculenta)) (enzyme)

binding [2]: binds
Molecule: nYFP-MeSSI (cassava (Manihot esculenta)) (enzyme)

binding [1]: binds
Molecule: MeSBEI (cassava starch branching enzyme I)

binding [3]: binds
binding [4]: binds
B1: MeGBSSI, yeast two-hybrid fusion (enzyme, UniProt Q43784 1-608)
chain: MATVIAAHFVSRSSHLSIHALETKANNLSHTGPWTQTITPNGLRSLNTMDKLQMKTQSKAVKKVSATGNGRPAAKIICGHGMNLIFVGAEVGPWSKTGGLGDVLGGLPPAMAARGHRVMTVSPRYDQYKDAWDTSVSVEIKIGDRIETVRFFHSYKRGVDRVFVDHPMFLEKVWGKTGSKIYGPRAGLDYQDNQLRFSLLCLAALEAPRVLNLNSSKNFSGPYGEEVAFIANDWHTALLPCYLKAIYQPMGIYKHAKVAFCIHNIAYQGRFAFSDFPRLNLPDKFKSSFDFIDGYEKPVKGRKINWMKAGILESDRVLTVSPYYAQEVISGVERGVELDNFIRKTGIAGIINGMDVQEWNPVTDKYIDIHYDATTVMDAKPLLKEALQAEVGLPVDRNVPLIGFIGRLEEQKGSDIFVAAISQLVEHNVQIVILGTGKKKFEKQIEHLEVLYPDKARGVAKFNVPLAHMITAGADFMLVPSRFEPCGLIQLHAMRYGTVPIVASTGGLVDTVKEGYTGFQMGALHVECDKIDSADVAAIVKTVARALGTYATAALREMILNCMAQDLSWKGPARMWEKMLLDLEVTGSEPGTEGEEIAPLAKENVPTP

binding [5]: binds
binding [6]: binds
binding [7]: binds
binding [8]: binds
B2: MeGBSSI (cassava granule-bound starch synthase I) (enzyme, UniProt Q43784 79-608)
chain: GHGMNLIFVGAEVGPWSKTGGLGDVLGGLPPAMAARGHRVMTVSPRYDQYKDAWDTSVSVEIKIGDRIETVRFFHSYKRGVDRVFVDHPMFLEKVWGKTGSKIYGPRAGLDYQDNQLRFSLLCLAALEAPRVLNLNSSKNFSGPYGEEVAFIANDWHTALLPCYLKAIYQPMGIYKHAKVAFCIHNIAYQGRFAFSDFPRLNLPDKFKSSFDFIDGYEKPVKGRKINWMKAGILESDRVLTVSPYYAQEVISGVERGVELDNFIRKTGIAGIINGMDVQEWNPVTDKYIDIHYDATTVMDAKPLLKEALQAEVGLPVDRNVPLIGFIGRLEEQKGSDIFVAAISQLVEHNVQIVILGTGKKKFEKQIEHLEVLYPDKARGVAKFNVPLAHMITAGADFMLVPSRFEPCGLIQLHAMRYGTVPIVASTGGLVDTVKEGYTGFQMGALHVECDKIDSADVAAIVKTVARALGTYATAALREMILNCMAQDLSWKGPARMWEKMLLDLEVTGSEPGTEGEEIAPLAKENVPTP
